{"sequences": {"note": "Chains of the proteins cited; added tags and fusions are not shown. Lines headed by an entry give the natural chain unless they say otherwise; changes in a name come on top.", "UniProt Q13263": "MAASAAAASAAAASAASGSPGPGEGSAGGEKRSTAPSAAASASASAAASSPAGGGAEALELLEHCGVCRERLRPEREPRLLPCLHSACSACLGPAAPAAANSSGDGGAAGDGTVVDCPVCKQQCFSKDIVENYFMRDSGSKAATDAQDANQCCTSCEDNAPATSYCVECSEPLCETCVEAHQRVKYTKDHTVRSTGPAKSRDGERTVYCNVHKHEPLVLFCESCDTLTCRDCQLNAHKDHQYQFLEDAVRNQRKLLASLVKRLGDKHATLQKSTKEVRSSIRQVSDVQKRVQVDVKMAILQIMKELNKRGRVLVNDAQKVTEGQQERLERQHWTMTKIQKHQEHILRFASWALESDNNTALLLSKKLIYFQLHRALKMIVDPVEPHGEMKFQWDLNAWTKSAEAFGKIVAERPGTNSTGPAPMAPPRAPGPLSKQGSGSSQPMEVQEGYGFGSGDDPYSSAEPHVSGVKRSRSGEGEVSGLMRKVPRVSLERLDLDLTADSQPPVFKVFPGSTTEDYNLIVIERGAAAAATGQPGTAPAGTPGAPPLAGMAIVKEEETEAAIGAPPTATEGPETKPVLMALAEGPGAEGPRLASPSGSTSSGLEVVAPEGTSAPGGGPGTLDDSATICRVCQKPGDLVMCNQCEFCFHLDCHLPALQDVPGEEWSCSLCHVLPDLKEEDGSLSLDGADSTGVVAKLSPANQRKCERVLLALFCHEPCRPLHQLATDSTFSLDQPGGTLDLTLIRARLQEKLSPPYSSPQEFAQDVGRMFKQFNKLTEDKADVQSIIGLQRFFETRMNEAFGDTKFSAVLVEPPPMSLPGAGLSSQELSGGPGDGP", "UniProt Q9UBW7": "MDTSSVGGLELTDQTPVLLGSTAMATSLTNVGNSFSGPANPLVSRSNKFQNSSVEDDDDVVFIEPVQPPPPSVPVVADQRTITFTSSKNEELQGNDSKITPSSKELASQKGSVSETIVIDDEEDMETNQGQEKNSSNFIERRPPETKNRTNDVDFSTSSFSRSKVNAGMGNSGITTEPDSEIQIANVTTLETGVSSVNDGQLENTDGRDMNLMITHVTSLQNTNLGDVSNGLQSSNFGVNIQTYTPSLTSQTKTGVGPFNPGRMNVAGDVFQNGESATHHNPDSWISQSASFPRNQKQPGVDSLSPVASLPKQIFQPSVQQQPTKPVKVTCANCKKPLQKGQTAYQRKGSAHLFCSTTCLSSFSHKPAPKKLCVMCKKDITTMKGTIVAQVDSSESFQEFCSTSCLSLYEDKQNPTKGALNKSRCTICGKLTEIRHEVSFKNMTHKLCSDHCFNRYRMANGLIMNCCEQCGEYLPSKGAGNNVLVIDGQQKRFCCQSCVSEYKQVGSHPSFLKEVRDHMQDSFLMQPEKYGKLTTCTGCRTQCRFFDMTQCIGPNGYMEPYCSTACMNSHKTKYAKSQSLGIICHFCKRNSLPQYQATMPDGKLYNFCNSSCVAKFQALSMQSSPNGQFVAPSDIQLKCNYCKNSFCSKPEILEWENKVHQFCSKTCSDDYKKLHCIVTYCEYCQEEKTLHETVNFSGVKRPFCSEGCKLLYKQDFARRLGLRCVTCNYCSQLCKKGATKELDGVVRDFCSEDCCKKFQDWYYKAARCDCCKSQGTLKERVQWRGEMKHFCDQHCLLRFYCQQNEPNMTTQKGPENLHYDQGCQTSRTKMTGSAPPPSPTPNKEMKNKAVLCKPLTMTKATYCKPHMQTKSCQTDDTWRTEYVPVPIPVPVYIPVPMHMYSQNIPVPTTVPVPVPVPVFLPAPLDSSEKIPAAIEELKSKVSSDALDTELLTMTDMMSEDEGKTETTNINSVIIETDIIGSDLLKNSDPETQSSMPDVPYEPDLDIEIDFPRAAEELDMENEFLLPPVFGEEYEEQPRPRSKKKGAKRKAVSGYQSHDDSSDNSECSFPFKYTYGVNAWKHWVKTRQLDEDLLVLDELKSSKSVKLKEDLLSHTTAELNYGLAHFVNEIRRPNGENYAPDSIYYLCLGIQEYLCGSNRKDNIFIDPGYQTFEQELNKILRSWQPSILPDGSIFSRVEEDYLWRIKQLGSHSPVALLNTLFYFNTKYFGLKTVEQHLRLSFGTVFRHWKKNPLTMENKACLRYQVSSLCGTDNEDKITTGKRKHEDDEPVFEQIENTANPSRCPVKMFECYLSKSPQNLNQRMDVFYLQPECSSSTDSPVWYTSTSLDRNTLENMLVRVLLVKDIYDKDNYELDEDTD"}, "source": "paper PMC10629813", "molecular_target": "TRIM28 (endogenous, HEK293T cells) (human (endogenous in HEK293T)) (UniProt Q13263)", "test": "co-IP; HEK293T cells transfected 24 hr with EGFP-tagged ZMYM2 plasmids; lysates with protease inhibitors and 20 mM NEM; IP with TRIM28 antibody, immunoblot with GFP and TRIM28 antibodies", "note": "Results are given in words; binding and its absence hold for the method and conditions named. Binding seen in cells or lysates may run through a third protein. A result given as binding can be weak or reduced; the word gives no strength.", "data": [{"substance": "EGFP-ZMYM2(SIMmut) (from UniProt Q9UBW7)", "values": [{"measurement": "binding", "value": "binds"}]}]}
